Measured values taken from PMC7819943, “Rice protein-binding microarrays: a tool to detect cis-acting elements near promoter regions in rice”.
Some of the results follow.

By UniProt entry, the sequences of proteins in these tests, tags left out.
UniProt Q0JBA9, entry or part of it: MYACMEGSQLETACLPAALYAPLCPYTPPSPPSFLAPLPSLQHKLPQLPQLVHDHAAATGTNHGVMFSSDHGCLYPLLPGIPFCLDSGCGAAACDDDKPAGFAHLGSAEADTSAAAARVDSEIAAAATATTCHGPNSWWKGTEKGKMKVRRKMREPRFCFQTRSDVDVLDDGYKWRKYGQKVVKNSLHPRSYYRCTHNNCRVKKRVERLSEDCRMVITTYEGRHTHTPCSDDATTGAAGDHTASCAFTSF

Molecular target: OsWRKY34 (Oryza sativa, UniProt Q0JBA9 1-250)
Assay: protein-binding microarray (RPBM); PBS, 2% BSA, 51.3 ng/ul salmon testes DNA, 50 uM zinc acetate, 200 nM TF, 25 C, 1 h; high values mean tight binding
Conditions: protein: recombinant; tags: N-terminal polyhistidine and DsRed monomer fusion (pET32a); label: CyDye5-dUTP incorporated in the synthesized complementary strand; 3' TTTTT single-stranded linker to array surface; dsDNA, one strand shown
How it was run: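 A custom Agilent array was converted to double-stranded form by primer extension with Cy5-dUTP and blocked with 2% BSA. Protein at 200 nM in PBS with 2% BSA, salmon testes DNA and 50 µM zinc acetate was applied for 1 h at 25 °C, followed by washing. The proteins were polyhistidine–DsRed N-terminal fusions of transcription factors, expressed in E. coli BL21-CodonPlus and Ni–NTA-purified. The binding signal is per-feature fluorescence intensity (arbitrary units) from an Axon 4000B scanner.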

Sequence	binding signal
TAAACCCTTCTCACAAAACTACCGCTCAACGTCATCAACACGGAGTCACCTAGTGCAG	10300 fluorescence intensity (a.u.)
TCAGCTCTGTTTCTCTTCGTCCCCAACTCCGATCTCGTCTCGGAGTCACCTAGTGCAG	10400 fluorescence intensity (a.u.)
CAATTCCCAGCTGCTTTCGCAACCTCTCGCGATCTGCCTCCGGAGTCACCTAGTGCAG	10000 fluorescence intensity (a.u.)
CTATTTTGGCCACTCGGGAGATGGTGTTGTTTCTGAATTTCGGAGTCACCTAGTGCAG	8180 fluorescence intensity (a.u.)
TTCACCTTCTATGCCTTCTGTGAAAATTAACTGGCTCTCACGGAGTCACCTAGTGCAG	8250 fluorescence intensity (a.u.)
GTTACTCCTTTGCCATCTCCATCTCCTGCCTACATGAACTCGGAGTCACCTAGTGCAG	8030 fluorescence intensity (a.u.)
CATCTTCCATCGTCACTCACCGACACCATCCGTAGGTCTTCGGAGTCACCTAGTGCAG	9800 fluorescence intensity (a.u.)
GCTACCTATTTTTACATTCAGGTTAGGGGACCTTGCAGGGCGGAGTCACCTAGTGCAG	8810 fluorescence intensity (a.u.)
TTCTTCTTCTTCTTCTCCACCTGCGATTGATTCGGCCTCTCGGAGTCACCTAGTGCAG	9300 fluorescence intensity (a.u.)
TTTCCTCATTTATTCACCTGTCACACCATCTTTCATCATACGGAGTCACCTAGTGCAG	9590 fluorescence intensity (a.u.)
CAGCTAGGTTTCCGCCTCTCTCACCATCTCCATCTCCATGCGGAGTCACCTAGTGCAG	8720 fluorescence intensity (a.u.)
ATAGTTTACACCGGTTTTGATTGTTAGAGGAGTTGATATACGGAGTCACCTAGTGCAG	10500 fluorescence intensity (a.u.)
CTTCCCATGGCTTTTACTCTCCACTCGAAATCTCGTAACACGGAGTCACCTAGTGCAG	11100 fluorescence intensity (a.u.)
GTTCCTTATCCGCATCATCCCCACCGCCGGCCACACACCTCGGAGTCACCTAGTGCAG	11900 fluorescence intensity (a.u.)
AAGTGCAGTGCCCTATATGCTTAGGTAGGAATTTGCTTTCCGGAGTCACCTAGTGCAG	8480 fluorescence intensity (a.u.)
ACGTCGCCCGTCTCCAGCCGCCTCATGAGCTCCGCCACCGCGGAGTCACCTAGTGCAG	9870 fluorescence intensity (a.u.)
TTTTAGATTTGACGTTTAGCCGTTTACCACTCATATATCACGGAGTCACCTAGTGCAG	9680 fluorescence intensity (a.u.)
GCACCTTCCCCGCCACGTGTTCCGCCACCGCTCTCAACTCCGGAGTCACCTAGTGCAG	8740 fluorescence intensity (a.u.)
TGACTTCTTCTTTCTCAATTCCCGCCACCCCGGCACGCCCCGGAGTCACCTAGTGCAG	10000 fluorescence intensity (a.u.)
ATCGTCTTCAACTGCGCGTCTACGCCATCAAGCTTCGGGTCGGAGTCACCTAGTGCAG	9420 fluorescence intensity (a.u.)
AAATCCTACGTTTTTCCTATTCCTACGTTTTCTCAATCCTCGGAGTCACCTAGTGCAG	8530 fluorescence intensity (a.u.)
GAACATTTGAGTCATCTACTATCTTGCAATATCACTCTTCCGGAGTCACCTAGTGCAG	9980 fluorescence intensity (a.u.)
TCCAATTTCCTAACACATCCTTCGATTGGAACATTTTTATCGGAGTCACCTAGTGCAG	9220 fluorescence intensity (a.u.)
TCACCCATGTTTCTGCCTACACATCTCTCTTCCACCTAGTCGGAGTCACCTAGTGCAG	10500 fluorescence intensity (a.u.)
ATTTCTTTTGGGGTTCTATTCCGCCTTATATCGGGCACATCGGAGTCACCTAGTGCAG	11200 fluorescence intensity (a.u.)
TTCTCCACCGCCGCCACCACCACCTCGCCTGGCCGGCCTCCGGAGTCACCTAGTGCAG	18000 fluorescence intensity (a.u.)
GGTGGTTGGTGGTAGGGTTTTAGCGCGGCAGGCGGAGATGCGGAGTCACCTAGTGCAG	10500 fluorescence intensity (a.u.)

Nothing new here: entries from further up.
Sequence	binding signal
TAAACCCTTCTCACAAAACTACCGCTCAACGTCATCAACACGGAGTCACCTAGTGCAG	10300 fluorescence intensity (a.u.)
TCAGCTCTGTTTCTCTTCGTCCCCAACTCCGATCTCGTCTCGGAGTCACCTAGTGCAG	10400 fluorescence intensity (a.u.)
CAATTCCCAGCTGCTTTCGCAACCTCTCGCGATCTGCCTCCGGAGTCACCTAGTGCAG	10000 fluorescence intensity (a.u.)
CTATTTTGGCCACTCGGGAGATGGTGTTGTTTCTGAATTTCGGAGTCACCTAGTGCAG	8180 fluorescence intensity (a.u.)

Further records follow:

Sequence	binding signal
ATCATTTAATTCCTGCGTTTTTCCTGCGATTCAATCAAACCGGAGTCACCTAGTGCAG	11300 fluorescence intensity (a.u.)
CTCGACTGTAACTGCGCTGGCCGCCTGGCCTCTTCAAGATCGGAGTCACCTAGTGCAG	11400 fluorescence intensity (a.u.)
ATTGATGATTTTATCTGGTTTGTTCAGCAATTTTGCAAGACGGAGTCACCTAGTGCAG	8990 fluorescence intensity (a.u.)
ATCTGATTCCTCTCGAGACGGCGGATCCGAGCAATCTCTCCGGAGTCACCTAGTGCAG	8600 fluorescence intensity (a.u.)
TCATCTTCACACCTCTCAATTAATTTATATTTCATTTCTCCGGAGTCACCTAGTGCAG	8750 fluorescence intensity (a.u.)
GGCGTCGGTGGTGGTGTGAATTGATAGAATTGATACGATGCGGAGTCACCTAGTGCAG	8930 fluorescence intensity (a.u.)
GCATCTAGTCCATAGGGAATTTAGTTCGTTTTGTAGTTGACGGAGTCACCTAGTGCAG	8260 fluorescence intensity (a.u.)
TCCCCGCTCACTCACCCAGCCGCTCCCTCGGCTCGGCAGCCGGAGTCACCTAGTGCAG	8650 fluorescence intensity (a.u.)
CGCCTACATCCCGCCGTCCAACGACTCCGGCCTCACGCGGCGGAGTCACCTAGTGCAG	8680 fluorescence intensity (a.u.)
CATACAGATATTCAAACATGGTGAAAAATTTTAGGGTGGGCGGAGTCACCTAGTGCAG	8120 fluorescence intensity (a.u.)
TTGCTTATCTAACTGTTCGTCTCACCTCACTGGTTTCTTCCGGAGTCACCTAGTGCAG	9950 fluorescence intensity (a.u.)
CGCAAACTTCTGGGTTTAATGTAACCGTCTCATCTTTGTCCGGAGTCACCTAGTGCAG	8900 fluorescence intensity (a.u.)
TAGTGATATGCTACCTCTACACCAAAATAAGTCTATTTTTCGGAGTCACCTAGTGCAG	8310 fluorescence intensity (a.u.)
TTTCCTTTGCTCTCCTCGCTCCTCTTATCATCTCCTCCTACGGAGTCACCTAGTGCAG	8780 fluorescence intensity (a.u.)
CGACCGTATTGGGGATTGGGACGGATGGGTGTGGGATACACGGAGTCACCTAGTGCAG	8570 fluorescence intensity (a.u.)
CCTGTTTCTGACAACACCGCTGTTCGTTCCGCTAGCGACACGGAGTCACCTAGTGCAG	9530 fluorescence intensity (a.u.)
AACAGCCTGCACTCGCACGTCCCGTCTTGCCTTGTCTCCGCGGAGTCACCTAGTGCAG	8800 fluorescence intensity (a.u.)
GCCGCCTGCCTCCTCGGCCGCGCGCTCACCTGCCGCTACCCGGAGTCACCTAGTGCAG	8450 fluorescence intensity (a.u.)
CCATTATTGGACGCATTCCGTCAGCATCAACTGCCTCATCCGGAGTCACCTAGTGCAG	9100 fluorescence intensity (a.u.)
AATTACTCAAATTTCTTCCTGCCCCAAAATTTGTCAGTCACGGAGTCACCTAGTGCAG	8180 fluorescence intensity (a.u.)
GTTTCTTTTTCTCCCCTGAATTTATCTACGTGTTCATGTACGGAGTCACCTAGTGCAG	8030 fluorescence intensity (a.u.)
GTTTTTGGTAGGGGTTAGTTTCGAAATAAGTTTTTGAAAACGGAGTCACCTAGTGCAG	9030 fluorescence intensity (a.u.)
GTCTGCCACCAACCCACTTCCTATTTGTCGCCGTCGCGGCCGGAGTCACCTAGTGCAG	11600 fluorescence intensity (a.u.)
AAGTCCTTCATTTTTCCTATGTTTCTCCTCCATTCCGAATCGGAGTCACCTAGTGCAG	11400 fluorescence intensity (a.u.)
GGTTGGGAATGGCTGGCGGTTAATTCAATTTGCTGCTGACCGGAGTCACCTAGTGCAG	13000 fluorescence intensity (a.u.)
CCGCAAGGGTATTCTCGTAACTTGATCTCCTACCAAGCTACGGAGTCACCTAGTGCAG	8080 fluorescence intensity (a.u.)
ATGAACATGAGGACCATCATATCCCTCATCCCAGATACATCGGAGTCACCTAGTGCAG	9380 fluorescence intensity (a.u.)
